Where a name gives a salt, the structure may show the parent alone. The list shows a part of the results. Many values rest on one well or one pass, so single values are uncertain.
What follows are compounds tested on A2780 (assay: cell growth inhibition ratio vs untreated control (CCK8); higher = stronger inhibition of cell viability). Settings: 10 µM; 48 h.
Protocol: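 Natural product library (Topscience) screened at 10 µM final concentration for 48 h on ovarian cancer A2780 cells and patient-derived ovarian cancer cells (PDC) in 96-well plates; viability read by CCK8 and reported as inhibition ratio (%) relative to untreated control. Single-dose primary screen.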

SMILES	cell growth inhibition ratio
CC1=CCC[C@H](C)C(=O)C[C@@H](C(C)C)C(=O)C1 [Curdione]	3.18%
N[C@@H](Cc1cc(I)c(O)c(I)c1)C(=O)O [3,5-Diiodotyrosine Dihydrate]	13.1%
COC(=O)C=Cc1ccc(O)cc1 [Methyl 4-hydroxycinnamate]	-43.6%
C[C@]12CCC(=O)C=C1CC[C@@H]1[C@@H]2C(=O)C[C@@]2(C)[C@H]1CC[C@]2(O)C(=O)CO [Cortisone]	1.96%
CC(/C=C/C=C(\C)C(=O)O[C@@H]1O[C@H](CO[C@@H]2O[C@H](CO)[C@@H](O)[C@H](O)[C@H]2O)[C@@H](O)[C@H](O)[C@H]1O)=C\C=C\C=C(C)\C=C\C=C(/C)C(=O)O[C@@H]1O[C@H](CO[C@@H]2O[C@H](CO)[C@@H](O)[C@H](O)[C@H]2O)[C@@H](O)[C@H](O)[C@H]1O [Crocin]	-15.7%
CC(=O)c1c(O)cc(O)cc1O [Phloracetophenone]	10.9%
CC[C@H](CC[C@@H](C)[C@H]1CC[C@H]2[C@@H]3CC=C4C[C@@H](O)CC[C@]4(C)[C@H]3CC[C@]12C)C(C)C [Beta-Sitosterol]	-6.4%
C=C1CC[C@@H]2[C@](C)(CO[C@@H]3O[C@H](CO)[C@@H](O)[C@H](O)[C@H]3O)CCC[C@@]2(C)[C@@H]1CCC1=CCOC1=O [Neoandrographolide]	4.63%
Nc1nc(=O)c2c([nH]1)NCC(CNc1ccc(C(=O)N[C@@H](CCC(=O)O)C(=O)O)cc1)N2C=O (stereo not given in full) [Calcium folinate]	12.1%
O=c1cc[nH]c(=O)[nH]1 [Uracil]	12.3%
O=C(O[C@@H]1Cc2c(O)cc(O)cc2O[C@@H]1c1ccc(O)c(O)c1)c1cc(O)c(O)c(O)c1 [(-)-Epicatechin gallate]	3.42%
O=c1c(-c2ccc(O)cc2)coc2c([C@@H]3O[C@H](CO)[C@@H](O)[C@H](O)[C@H]3O)c(O)ccc12 [Puerarin (Kakonein)]	4.98%
CC1=C(C/C=C(\C)CCC[C@H](C)CCC[C@H](C)CCCC(C)C)C(=O)c2ccccc2C1=O [Vitamin K1]	15.9%
C=CCSC[C@H](N)C(=O)O [S-allyl-L-cysteine]	14.7%
C[C@H]1COC2=C1C(=O)C(=O)c1c2ccc2c1CCCC2(C)C [Cryptotanshinone]	45.1%
CC1(C)CC[C@]2(C(=O)O)CC[C@]3(C)C(=CC[C@@H]4[C@@]5(C)CC[C@H](O)[C@@](C)(CO)[C@@H]5CC[C@]43C)[C@@H]2C1 [Hederagenin]	-1.46%
O=c1cc(-c2ccccc2)oc2c(O)c(O)ccc12 [7,8-Dihydroxyflavone]	-3.13%
COC(=O)c1cc(OC)c(OC)c(OC)c1 [Methyl EudesMate]	-0.825%
Cc1cc(O)cc(O)c1C(=O)O [Orsellinic acid]	-0.472%
OC[C@@H](O)[C@@H](O[C@H]1O[C@H](CO)[C@@H](O)[C@H](O)[C@H]1O)[C@H](O)[C@@H](O)CO [Maltitol]	-6.44%

A portion taken from the entries so far:
SMILES	cell growth inhibition ratio
CC1(C)CC[C@]2(C(=O)O)CC[C@]3(C)C(=CC[C@@H]4[C@@]5(C)CC[C@H](O)[C@@](C)(CO)[C@@H]5CC[C@]43C)[C@@H]2C1 [Hederagenin]	-1.46%
O=c1cc(-c2ccccc2)oc2c(O)c(O)ccc12 [7,8-Dihydroxyflavone]	-3.13%

Further records follow.

SMILES	cell growth inhibition ratio
CC(C)=CCC/C(C)=C/CC/C(C)=C/CC/C(C)=C/CC/C(C)=C/CC/C(C)=C/CC/C(C)=C/CC/C(C)=C/CC/C(C)=C/CO [Solanesol]	9.12%
Cc1cc(O)c2c(c1)C(=O)c1cc(O)cc(O)c1C2=O [Emodin]	23.7%
COc1c2occc2c(OC)c2c(=O)cc(C)oc12 [Khellin]	3.65%
C[C@H]1[C@H](C)CC[C@]2(C(=O)O)CC[C@]3(C)C(=CC[C@@H]4[C@@]5(C)CC[C@H](O)C(C)(C)[C@@H]5CC[C@]43C)[C@H]12 [Ursolic acid]	-0.0364%
C[C@@]12CC[C@@H]3[C@@](CC[C@H]4[C@@]3(C)CCC[C@@]4(C)C(=O)O)(CC1=O)C2 [Isosteviol]	0.972%
COc1cc(C=O)ccc1O [Vanillin]	-4.65%
COC(=O)C[C@](O)(CCCC(C)(C)O)C(=O)O[C@@H]1C(OC)=C[C@]23CCCN2CCc2cc4c(cc2[C@H]13)OCO4 [Homoharringtonine]	93.7%
C=C[C@H]1CN2CC[C@H]1C[C@H]2[C@H](O)c1ccnc2ccc(OC)cc12 [Quinine]	-17.3%
COC(=O)c1c2c(c3ccccc3c1O)OC(C)(C)C=C2 [Mollugin]	-6.18%
C[C@H]1O[C@H](O[C@@H]2[C@@H](O)[C@H](OCCc3ccc(O)c(O)c3)O[C@H](CO[C@H]3OCC(O)(CO)[C@@H]3O)[C@H]2OC(=O)/C=C/c2ccc(O)c(O)c2)[C@@H](O)[C@@H](O)[C@@H]1O (stereo not given in full) [Forsythoside B]	5.08%
CC[C@]1(O)C[C@H]2CN(CCc3c([nH]c4ccccc34)[C@@](C(=O)OC)(c3cc4c(cc3OC)N(C=O)[C@H]3[C@@](O)(C(=O)OC)[C@H](OC(C)=O)[C@]5(CC)C=CCN6CC[C@]43[C@@H]65)C2)C1 [Vincristine sulfate]	88.1%
NC[C@H]1O[C@H](O[C@H]2[C@H](O)[C@@H](O[C@H]3O[C@H](CO)[C@@H](O)[C@H](N)[C@H]3O)[C@H](N)C[C@@H]2N)[C@H](N)C[C@@H]1O [Tobramycin]	6.03%
C[C@@H]1O[C@@H](Oc2c(-c3cc(O)c(O)c(O)c3)oc3cc(O)cc(O)c3c2=O)[C@H](O)[C@H](O)[C@H]1O [Myricetrin]	3.17%
CC(=O)Oc1c(C)c(C)c2c(c1C)CCC(C)(CCC[C@H](C)CCC[C@H](C)CCCC(C)C)O2 (stereo not given in full) [Vitamin E Acetate]	11.3%
O=C1c2cccc3c2[C@H](CCC3)CN1[C@@H]1CN2CCC1CC2 [Palonosetron hydrochloride]	8.03%
O=c1c(O)c(-c2ccccc2)oc2cc(O)cc(O)c12 [Galangin]	12.5%
C/C1=C2N=C(/C=C3N=C(/C(C)=C4\[N-]C(C(CC(N)=O)C4(C)CCC(=O)NCC(C)OP(=O)([O-])OC4C(CO)OC(n5cnc6cc(C)c(C)cc65)C4O)C4(C)N=C1C(CCC(N)=O)C4(C)CC(N)=O)C(CCC(N)=O)C\3(C)C)C(CCC(N)=O)C/2(C)CC(N)=O.[CH3-].[Co+3] (stereo not given) [Methylcobalamin]	8.44%
OCC1=C[C@@H](O)[C@@H]2C=CO[C@@H](O[C@@H]3O[C@H](CO)[C@@H](O)[C@H](O)[C@H]3O)[C@H]12 [Aucubin]	23%
O=C(O)C1=CO[C@@H](O[C@@H]2O[C@H](CO)[C@@H](O)[C@H](O)[C@H]2O)[C@@H]2C(CO)=CC[C@H]12 [Geniposidic Acid]	0.207%
C=C1C[C@@]2(O)O[C@@]3(C[C@H]2C(C)C)[C@@H](C)CC[C@@H]13 [Curcumol]	1.67%
